Test results reported in article PMC12040169 (PLOS Biology, 2025).
The other results are listed elsewhere or left out.

Tested on: T1, CTL2-GFP (C. trachomatis L2/434/Bu, GFP-expressing)
T1 construct: L2/434/Bu, GFP-expressing
Design: species or system HeLa; Intracellular C. trachomatis growth in HeLa cells, bulk GFP fluorescence relative to DMSO
Conditions: bulk GFP, single well; 28.5 h, 10 µM; inhibitor

Compared with `Cc1nn(C(C)C(=O)Nc2cc(C(F)(F)F)ccc2Cl)c(C)c1[N+](=O)[O-]` (stereo not shown) [CBK268697], `COc1ccc([N+](=O)[O-])cc1NC(=O)Nc1ccc(Cl)c(Cl)c1` [CBK267593] is lower in “% of control remaining” value: 133.38% for the first, 125.991% for the second.

Going from `O=C(NC1CCCC1)c1ccc(=O)[nH]c1` [CBK058093] to `CCC(CN1CCCC1)NC(=O)C1CC(=O)Nc2ccccc21` (stereo not shown) [CBK282757], the “% of control remaining” value rises from 116.373% to 128.976%.

Going from `COc1ccc(S(=O)(=O)NC(CCSC)c2nnc3ccccn23)cc1` (stereo not shown) [CBK304402] to `Cc1ccc(Cl)cc1N(CC(=O)O)S(=O)(=O)c1ccccc1` [CBK262424], the “% of control remaining” value rises from 107.479% to 126.794%.

First: OCCN(CCO)c1ccccc1N(CCO)CCO [CBK009141]
Second: CN(C)CCN(C(=O)Cc1ccc2c(c1)CCC2)C1CCN(C)CC1 [CBK282182]
The “% of control remaining” value of the first is lower: 131.938% for the first, 139.685% for the second.

Going from `CC(NC(=O)N(Cc1ccc(CN)cc1)Cc1ccc2ccccc2c1)c1cccc2ccccc12` (stereo not shown) [CBK046092C] to `O=C(O)c1cccc(CSc2nnc(-c3ccccc3)c(-c3ccccc3)n2)c1` [CBK269165], the “% of control remaining” value rises from 72.5448% to 119.43%.

Compared with `COc1ccc([N+](=O)[O-])c(Oc2ccccc2OCc2ccccc2)n1` [CBK002753], `COc1ccc2[nH]c3c(c2c1)CCN(CC(C)O)C31CCN(CCOc2ccccc2)C1` (stereo not shown) [CBK084612T] is lower in “% of control remaining” value: 71.18% for the first, 53.4395% for the second.

Going from `Oc1nc2cccnc2cc1-c1ccc2c(c1)OCCCO2` [CBK081299] to `O=C(CSc1nc2cccnc2[nH]1)Nc1cccc(F)c1` [CBK270113], the “% of control remaining” value falls from 174.494% to 139.875%.

Compared with `CCc1nc2n(n1)CC(NC1CCCc3ccccc31)CC2` (stereo not shown) [CBK304837], `Cn1c(N2CCC(C(=O)NC3CC3)CC2)nc2ccccc21` [CBK283940] is higher in “% of control remaining” value: 88.9165% for the first, 124.49% for the second.

Compared with `O=S(=O)(c1ccc(-n2cnc(Cl)c2Cl)cc1)N1CCCN(Cc2csc(-c3ccccc3)n2)CC1` [CBK062790], `Cc1onc(-c2ccccc2)c1CNC(=O)[C@@H]1CCCN1C` [CBK144077] is higher in “% of control remaining” value: 99.9508% for the first, 105.974% for the second.

Compared with `CCC(=O)N1CCC2(CCCC[C@H]3CN(C(C)=O)CC[C@H]3NC(=O)CNC2=O)CC1` [CBK292147], `Cn1c(=O)c2c(nc(N3CCOCC3)n2CCC/N=C2\CCCCN2)n(C)c1=O` [CBK218356] is higher in “% of control remaining” value: 113.755% for the first, 128.055% for the second.

First: CC(=O)Nc1ccc(Oc2cc(C)nc(C3CCNCC3)c2)cc1 [CBK283468]
Second: COc1cc([N+](=O)[O-])c2[nH]c(C(=O)O)c(CCNC(C)=O)c2c1 [CBK260895]
The “% of control remaining” value of the first is higher: 149.492% for the first, 114.208% for the second.
